Measured values from paper PMC5069405.
No constants are given. Whether binding was seen depends on the method and setting. In cells and extracts the contact can be indirect. Some entries that bind do so weakly or less than the wild type.

Chains of the proteins cited; added tags and fusions are not shown.
UniProt P46937: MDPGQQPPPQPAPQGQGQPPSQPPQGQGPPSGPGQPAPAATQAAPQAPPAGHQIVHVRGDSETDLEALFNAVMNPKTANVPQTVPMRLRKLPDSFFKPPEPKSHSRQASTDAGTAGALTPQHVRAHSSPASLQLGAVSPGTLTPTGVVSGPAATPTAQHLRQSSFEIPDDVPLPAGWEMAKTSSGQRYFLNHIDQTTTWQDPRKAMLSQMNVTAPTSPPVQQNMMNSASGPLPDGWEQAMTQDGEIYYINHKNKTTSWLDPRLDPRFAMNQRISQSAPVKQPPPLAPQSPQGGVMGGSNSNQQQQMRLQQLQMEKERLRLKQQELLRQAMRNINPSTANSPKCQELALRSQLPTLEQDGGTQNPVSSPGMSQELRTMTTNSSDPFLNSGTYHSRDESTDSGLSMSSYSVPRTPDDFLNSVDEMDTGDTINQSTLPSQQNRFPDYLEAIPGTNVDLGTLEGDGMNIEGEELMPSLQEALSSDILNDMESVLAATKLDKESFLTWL

Biological target: T1, transcription factor P73 (human (endogenous in HPMEC)) (UniProt O15350)
T1 sequence: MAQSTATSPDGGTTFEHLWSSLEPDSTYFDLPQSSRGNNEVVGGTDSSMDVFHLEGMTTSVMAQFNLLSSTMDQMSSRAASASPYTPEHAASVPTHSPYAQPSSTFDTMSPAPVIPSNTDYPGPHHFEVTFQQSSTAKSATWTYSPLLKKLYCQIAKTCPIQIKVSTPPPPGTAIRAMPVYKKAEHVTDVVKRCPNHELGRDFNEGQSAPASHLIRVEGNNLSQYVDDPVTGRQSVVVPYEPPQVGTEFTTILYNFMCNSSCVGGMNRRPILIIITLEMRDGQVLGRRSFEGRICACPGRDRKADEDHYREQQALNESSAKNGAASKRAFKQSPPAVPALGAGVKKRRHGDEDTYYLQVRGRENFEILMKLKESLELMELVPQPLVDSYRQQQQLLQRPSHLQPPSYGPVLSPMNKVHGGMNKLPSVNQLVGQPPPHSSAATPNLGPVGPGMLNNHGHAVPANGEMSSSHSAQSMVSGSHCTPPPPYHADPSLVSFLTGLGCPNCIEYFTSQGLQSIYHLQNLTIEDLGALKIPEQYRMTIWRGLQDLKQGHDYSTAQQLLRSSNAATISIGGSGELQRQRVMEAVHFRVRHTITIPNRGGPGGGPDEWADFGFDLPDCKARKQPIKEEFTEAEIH
Test: co-IP; HPMEC lysed in RIPA+PMSF with protease inhibitor cocktail; extracts incubated overnight with P73 antibody, 2 h with protein A agarose beads, washed three times; blot with anti-phospho-YAP (Y357); cells stimulated with LPS and CHX for the indicated times or untreated

Substance: Yes-associated protein phosphorylated on Y357 (from UniProt P46937 1-504)
- binding: binds
